Measured values published in patent US20220009906A1, “ISOINDOLIN-1-ONE DERIVATIVES USEFUL AS GRK2 INHIBITORS” (priority 2020, published 2022).
The match of structure and compound is tentative.

Amino acid sequences for entries named in this document (tags omitted).
UniProt P25098, whole entry: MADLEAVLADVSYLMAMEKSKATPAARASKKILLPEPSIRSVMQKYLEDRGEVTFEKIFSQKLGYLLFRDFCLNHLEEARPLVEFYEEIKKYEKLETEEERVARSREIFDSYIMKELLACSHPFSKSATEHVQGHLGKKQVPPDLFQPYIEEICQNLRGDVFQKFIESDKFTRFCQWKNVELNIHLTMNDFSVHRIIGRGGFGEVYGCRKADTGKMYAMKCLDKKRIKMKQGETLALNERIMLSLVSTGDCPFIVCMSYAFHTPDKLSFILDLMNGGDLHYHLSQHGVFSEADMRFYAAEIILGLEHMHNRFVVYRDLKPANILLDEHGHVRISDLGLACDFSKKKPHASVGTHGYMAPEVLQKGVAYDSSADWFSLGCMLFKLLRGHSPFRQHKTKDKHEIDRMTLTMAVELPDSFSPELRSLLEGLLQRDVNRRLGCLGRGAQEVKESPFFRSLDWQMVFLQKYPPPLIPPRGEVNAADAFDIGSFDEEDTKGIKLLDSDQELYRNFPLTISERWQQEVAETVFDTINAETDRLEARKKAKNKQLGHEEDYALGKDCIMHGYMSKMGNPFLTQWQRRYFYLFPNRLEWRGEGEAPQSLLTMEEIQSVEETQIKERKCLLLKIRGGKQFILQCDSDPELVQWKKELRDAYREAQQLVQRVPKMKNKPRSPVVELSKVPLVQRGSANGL

Experiments:
GRK2 [1] = molecular target: T1, GRK2 (Homo sapiens, UniProt P25098); assay: hGRK2 LANCE Ultra In Vitro Assay; assay type: biochemical; details: read-out: Biological Example 1 GRK2 Lancer IC50; 10 nM GRK2; 30 or 600 μM ATP (not stated which); multiple measurements listed individually
GRK2 [2] = molecular target: T1, GRK2; assay: GRK2 Transcreener Assay; assay type: biochemical; details: read-out: Biological Example 2 GRK2 Transcreener IC50; 10 nM GRK2; 10 μM ATP; 150 μM peptide substrate; multiple measurements listed individually

SMILES | IC50 (GRK2 [1]) [nM] | IC50 (GRK2 [2]) [nM]
COc1cccc([C@H](C(=O)O)N2Cc3ccc(-c4cn[nH]c4)cc3C2=O)c1 | 969 | 
COC(=O)C(c1cccc(OC)c1)N1Cc2ccc(-c3cn[nH]c3)cc2C1=O (centres unmarked) | 237 | 
COc1cccc(CN2Cc3ccc(-c4c[nH]c5ncccc45)cc3C2=O)c1 |  | 885
COC(=O)COc1cccc(CN2Cc3ccc(-c4cn[nH]c4)cc3C2=O)c1 | < 5 | 
CCOc1cccc(CN2C(=O)c3cc(-c4cn[nH]c4)ccc3C2CCN2C(=O)c3ccccc3C2=O)c1 (centres unmarked) |  | 1620
